# Literature values in US9744314B2, “Aerosols for sinunasal drug delivery” (PARI Pharma GmbH, priority 2007, dated 2017).
# Conditions: at 25° C.
smiles,measurement,value
OC[C@H]1O[C@@H]2O[C@H]3[C@H](O)[C@@H](O)[C@@H](O[C@H]4[C@H](O)[C@@H](O)[C@@H](O[C@H]5[C@H](O)[C@@H](O)[C@@H](O[C@H]6[C@H](O)[C@@H](O)[C@@H](O[C@H]7[C@H](O)[C@@H](O)[C@@H](O[C@H]1[C@H](O)[C@H]2O)O[C@@H]7CO)O[C@@H]6CO)O[C@@H]5CO)O[C@@H]4CO)O[C@@H]3CO [α-cyclodextrin],Aqueous solubility,about 145 mg/ml
